{"sequences": {"note": "Amino acid sequences for entries named in this document (tags omitted). A change or cut given only in a name is not applied to a line headed by its entry.", "UniProt Q6Y288": "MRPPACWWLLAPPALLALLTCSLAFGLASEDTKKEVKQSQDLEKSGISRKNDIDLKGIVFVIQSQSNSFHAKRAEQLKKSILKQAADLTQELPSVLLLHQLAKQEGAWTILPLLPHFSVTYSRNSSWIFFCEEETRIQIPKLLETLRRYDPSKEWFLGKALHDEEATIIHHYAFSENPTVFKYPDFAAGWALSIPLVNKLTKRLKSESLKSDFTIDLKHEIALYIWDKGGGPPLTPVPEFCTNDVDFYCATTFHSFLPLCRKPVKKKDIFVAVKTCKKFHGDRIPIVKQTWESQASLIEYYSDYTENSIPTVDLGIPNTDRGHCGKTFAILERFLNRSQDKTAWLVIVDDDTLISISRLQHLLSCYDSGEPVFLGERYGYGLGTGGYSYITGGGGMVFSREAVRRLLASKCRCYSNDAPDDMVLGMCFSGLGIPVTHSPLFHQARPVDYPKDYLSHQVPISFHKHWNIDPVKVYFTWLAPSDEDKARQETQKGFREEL", "UniProt Q9HD20": "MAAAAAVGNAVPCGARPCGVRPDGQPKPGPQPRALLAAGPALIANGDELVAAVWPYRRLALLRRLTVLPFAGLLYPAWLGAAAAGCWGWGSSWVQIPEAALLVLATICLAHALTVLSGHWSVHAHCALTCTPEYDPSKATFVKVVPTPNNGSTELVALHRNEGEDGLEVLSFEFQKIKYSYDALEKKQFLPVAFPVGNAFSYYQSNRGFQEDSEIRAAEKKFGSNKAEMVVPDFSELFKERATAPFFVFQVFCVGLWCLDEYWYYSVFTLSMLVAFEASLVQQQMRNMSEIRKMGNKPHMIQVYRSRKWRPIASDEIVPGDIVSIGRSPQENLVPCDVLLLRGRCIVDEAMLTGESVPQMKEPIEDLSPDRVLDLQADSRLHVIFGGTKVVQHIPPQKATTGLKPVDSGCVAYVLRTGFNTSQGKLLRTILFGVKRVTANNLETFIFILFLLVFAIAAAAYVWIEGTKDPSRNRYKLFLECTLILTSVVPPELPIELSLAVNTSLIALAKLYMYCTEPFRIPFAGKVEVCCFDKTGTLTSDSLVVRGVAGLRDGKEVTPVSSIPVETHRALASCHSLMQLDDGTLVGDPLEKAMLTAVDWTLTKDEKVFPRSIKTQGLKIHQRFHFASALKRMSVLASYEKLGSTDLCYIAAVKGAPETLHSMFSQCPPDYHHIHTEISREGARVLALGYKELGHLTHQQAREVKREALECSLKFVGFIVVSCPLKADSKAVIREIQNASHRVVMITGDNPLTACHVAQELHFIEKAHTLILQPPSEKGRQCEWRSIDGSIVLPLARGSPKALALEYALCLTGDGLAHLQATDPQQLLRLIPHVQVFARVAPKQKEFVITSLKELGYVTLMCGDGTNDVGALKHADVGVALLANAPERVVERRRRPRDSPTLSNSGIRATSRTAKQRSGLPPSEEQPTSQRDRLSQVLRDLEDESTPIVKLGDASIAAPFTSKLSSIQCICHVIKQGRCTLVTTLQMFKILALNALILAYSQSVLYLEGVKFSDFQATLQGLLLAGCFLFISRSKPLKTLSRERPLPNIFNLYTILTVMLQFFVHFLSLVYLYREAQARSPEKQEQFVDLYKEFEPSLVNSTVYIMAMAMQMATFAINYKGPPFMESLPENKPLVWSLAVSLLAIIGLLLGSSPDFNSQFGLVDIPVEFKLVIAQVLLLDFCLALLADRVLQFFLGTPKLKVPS", "UniProt P36542": "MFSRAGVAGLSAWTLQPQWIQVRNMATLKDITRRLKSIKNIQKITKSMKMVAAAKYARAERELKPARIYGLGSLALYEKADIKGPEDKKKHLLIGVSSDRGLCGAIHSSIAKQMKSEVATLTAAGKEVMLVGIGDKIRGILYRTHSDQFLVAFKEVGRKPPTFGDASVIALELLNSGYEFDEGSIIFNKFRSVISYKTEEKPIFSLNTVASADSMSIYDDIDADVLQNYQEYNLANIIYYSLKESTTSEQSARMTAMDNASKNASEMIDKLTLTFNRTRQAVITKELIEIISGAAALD", "UniProt P23634": "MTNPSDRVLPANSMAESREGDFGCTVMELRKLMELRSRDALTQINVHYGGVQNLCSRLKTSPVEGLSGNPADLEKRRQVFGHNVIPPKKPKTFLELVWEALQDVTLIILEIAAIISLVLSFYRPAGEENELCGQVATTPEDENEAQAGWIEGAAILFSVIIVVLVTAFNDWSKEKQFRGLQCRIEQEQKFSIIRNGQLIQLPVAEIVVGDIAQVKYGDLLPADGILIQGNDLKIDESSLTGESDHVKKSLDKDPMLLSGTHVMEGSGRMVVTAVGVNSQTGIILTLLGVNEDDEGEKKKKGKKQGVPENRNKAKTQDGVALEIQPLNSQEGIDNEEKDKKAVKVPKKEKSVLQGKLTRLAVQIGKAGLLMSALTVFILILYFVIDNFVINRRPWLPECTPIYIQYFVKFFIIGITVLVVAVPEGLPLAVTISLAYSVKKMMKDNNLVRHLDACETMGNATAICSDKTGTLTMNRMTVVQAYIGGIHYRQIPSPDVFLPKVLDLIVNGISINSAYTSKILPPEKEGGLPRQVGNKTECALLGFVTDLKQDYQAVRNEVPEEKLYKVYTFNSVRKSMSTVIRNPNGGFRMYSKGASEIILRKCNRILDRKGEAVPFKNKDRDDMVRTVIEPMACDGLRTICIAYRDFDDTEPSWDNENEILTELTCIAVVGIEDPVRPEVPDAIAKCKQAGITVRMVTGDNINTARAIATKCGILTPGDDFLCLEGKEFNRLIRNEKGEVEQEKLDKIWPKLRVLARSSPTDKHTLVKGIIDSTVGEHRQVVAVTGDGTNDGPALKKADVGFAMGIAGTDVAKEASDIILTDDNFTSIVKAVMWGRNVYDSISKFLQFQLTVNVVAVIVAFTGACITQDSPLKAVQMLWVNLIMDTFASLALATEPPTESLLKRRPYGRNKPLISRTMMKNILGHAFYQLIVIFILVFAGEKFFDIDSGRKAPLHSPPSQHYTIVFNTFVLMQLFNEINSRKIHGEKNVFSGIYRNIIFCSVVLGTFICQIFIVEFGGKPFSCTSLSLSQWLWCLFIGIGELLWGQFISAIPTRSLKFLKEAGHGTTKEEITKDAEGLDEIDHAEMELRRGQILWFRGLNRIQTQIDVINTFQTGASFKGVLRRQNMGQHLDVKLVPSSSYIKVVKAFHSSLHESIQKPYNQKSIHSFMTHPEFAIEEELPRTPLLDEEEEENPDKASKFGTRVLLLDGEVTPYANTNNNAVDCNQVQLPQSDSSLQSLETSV", "UniProt Q7Z3C6": "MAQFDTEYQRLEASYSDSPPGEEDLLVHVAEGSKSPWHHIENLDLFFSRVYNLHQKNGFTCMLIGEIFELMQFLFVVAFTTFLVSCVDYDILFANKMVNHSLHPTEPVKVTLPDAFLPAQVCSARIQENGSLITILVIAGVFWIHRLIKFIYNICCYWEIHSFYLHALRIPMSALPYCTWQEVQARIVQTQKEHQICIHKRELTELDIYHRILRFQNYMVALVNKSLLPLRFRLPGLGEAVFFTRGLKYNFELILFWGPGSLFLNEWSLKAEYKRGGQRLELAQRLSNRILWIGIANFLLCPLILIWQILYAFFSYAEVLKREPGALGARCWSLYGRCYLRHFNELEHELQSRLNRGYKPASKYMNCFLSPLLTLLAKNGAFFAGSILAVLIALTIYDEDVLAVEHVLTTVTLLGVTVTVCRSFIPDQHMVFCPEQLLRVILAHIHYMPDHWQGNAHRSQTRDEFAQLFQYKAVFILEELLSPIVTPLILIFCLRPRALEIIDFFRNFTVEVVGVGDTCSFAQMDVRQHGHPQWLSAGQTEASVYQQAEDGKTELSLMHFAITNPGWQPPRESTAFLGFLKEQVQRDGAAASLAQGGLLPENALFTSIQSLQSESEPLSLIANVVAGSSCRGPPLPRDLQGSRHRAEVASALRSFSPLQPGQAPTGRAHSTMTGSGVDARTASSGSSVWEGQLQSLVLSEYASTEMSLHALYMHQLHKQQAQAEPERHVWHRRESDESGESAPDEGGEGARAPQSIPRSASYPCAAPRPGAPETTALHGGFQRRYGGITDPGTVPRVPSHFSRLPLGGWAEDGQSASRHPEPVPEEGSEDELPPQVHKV", "UniProt P36543, whole entry, looked up": "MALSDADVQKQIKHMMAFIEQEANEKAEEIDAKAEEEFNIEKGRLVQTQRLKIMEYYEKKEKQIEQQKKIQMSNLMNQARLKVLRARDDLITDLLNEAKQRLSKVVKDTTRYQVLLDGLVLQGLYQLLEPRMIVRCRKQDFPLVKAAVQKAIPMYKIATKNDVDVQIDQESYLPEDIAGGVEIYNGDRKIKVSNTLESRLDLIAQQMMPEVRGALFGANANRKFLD", "UniProt Q9NQ11": "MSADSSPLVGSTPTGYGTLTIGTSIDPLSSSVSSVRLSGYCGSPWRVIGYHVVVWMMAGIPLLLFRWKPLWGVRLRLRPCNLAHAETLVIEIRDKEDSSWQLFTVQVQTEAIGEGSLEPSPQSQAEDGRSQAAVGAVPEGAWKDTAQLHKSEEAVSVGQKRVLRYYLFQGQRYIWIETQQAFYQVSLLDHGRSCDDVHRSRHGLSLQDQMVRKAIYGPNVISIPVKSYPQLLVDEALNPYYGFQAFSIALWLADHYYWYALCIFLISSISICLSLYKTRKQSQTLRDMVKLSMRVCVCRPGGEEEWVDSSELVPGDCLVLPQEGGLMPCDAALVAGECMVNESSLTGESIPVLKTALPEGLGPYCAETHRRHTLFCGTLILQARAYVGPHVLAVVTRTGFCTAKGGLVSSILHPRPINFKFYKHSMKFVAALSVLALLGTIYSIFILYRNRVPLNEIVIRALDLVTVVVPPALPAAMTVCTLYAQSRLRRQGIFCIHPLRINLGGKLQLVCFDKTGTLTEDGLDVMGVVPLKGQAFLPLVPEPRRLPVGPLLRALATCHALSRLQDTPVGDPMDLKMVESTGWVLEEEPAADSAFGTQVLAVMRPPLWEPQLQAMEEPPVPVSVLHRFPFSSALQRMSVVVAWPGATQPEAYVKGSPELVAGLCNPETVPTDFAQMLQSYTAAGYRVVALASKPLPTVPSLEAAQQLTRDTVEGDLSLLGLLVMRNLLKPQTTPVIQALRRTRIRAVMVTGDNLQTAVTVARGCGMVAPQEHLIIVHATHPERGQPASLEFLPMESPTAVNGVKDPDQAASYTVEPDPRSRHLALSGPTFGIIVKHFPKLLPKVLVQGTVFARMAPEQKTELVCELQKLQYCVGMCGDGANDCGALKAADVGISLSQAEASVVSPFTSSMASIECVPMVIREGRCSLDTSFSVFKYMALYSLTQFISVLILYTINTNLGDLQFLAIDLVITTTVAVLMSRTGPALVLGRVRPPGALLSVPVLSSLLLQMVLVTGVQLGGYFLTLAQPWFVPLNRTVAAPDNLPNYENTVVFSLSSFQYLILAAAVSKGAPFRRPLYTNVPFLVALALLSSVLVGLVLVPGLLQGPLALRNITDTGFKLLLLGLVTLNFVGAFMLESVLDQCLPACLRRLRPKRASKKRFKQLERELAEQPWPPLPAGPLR", "UniProt O95352": "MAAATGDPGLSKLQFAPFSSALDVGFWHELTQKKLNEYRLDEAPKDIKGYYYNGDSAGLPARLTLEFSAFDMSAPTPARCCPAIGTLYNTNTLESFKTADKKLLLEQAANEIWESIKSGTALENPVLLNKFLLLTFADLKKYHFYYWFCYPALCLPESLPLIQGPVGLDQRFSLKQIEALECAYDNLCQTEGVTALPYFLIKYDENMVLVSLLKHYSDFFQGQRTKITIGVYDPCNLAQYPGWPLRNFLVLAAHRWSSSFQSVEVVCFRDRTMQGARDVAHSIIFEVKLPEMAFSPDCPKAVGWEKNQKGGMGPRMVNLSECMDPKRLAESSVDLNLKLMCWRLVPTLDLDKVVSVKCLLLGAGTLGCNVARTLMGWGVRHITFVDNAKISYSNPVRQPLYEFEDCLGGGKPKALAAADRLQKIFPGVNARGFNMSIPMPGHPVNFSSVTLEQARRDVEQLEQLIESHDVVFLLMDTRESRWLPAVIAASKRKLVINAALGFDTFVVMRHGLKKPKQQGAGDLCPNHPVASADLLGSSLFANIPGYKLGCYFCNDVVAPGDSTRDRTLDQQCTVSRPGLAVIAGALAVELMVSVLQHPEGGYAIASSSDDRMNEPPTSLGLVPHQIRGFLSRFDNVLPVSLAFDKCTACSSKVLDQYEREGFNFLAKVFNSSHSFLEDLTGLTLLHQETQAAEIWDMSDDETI", "UniProt O43681": "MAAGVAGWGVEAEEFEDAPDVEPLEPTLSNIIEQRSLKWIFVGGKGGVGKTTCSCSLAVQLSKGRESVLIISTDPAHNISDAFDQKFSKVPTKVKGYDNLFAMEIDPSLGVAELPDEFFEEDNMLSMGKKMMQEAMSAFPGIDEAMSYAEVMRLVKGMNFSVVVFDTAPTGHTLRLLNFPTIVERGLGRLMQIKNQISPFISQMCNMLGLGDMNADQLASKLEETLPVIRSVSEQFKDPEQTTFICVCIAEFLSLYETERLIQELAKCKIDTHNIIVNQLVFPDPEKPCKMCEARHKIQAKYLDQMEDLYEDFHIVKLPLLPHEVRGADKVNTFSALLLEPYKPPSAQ"}, "source": "the supplement of paper PMC10849652", "note": "The other results are listed elsewhere or left out."}
{"compound": "CC1=CC=C(C=C1)SC2=C3C=C(SC3=CN=C2)C(=O)N", "experiment": "log2 fold change, soluble protein after heating vs DMSO (PISA); higher = thermal stabilisation; K562 lysate, 10 uM; active = over 0.2 and 3.5 SD of the protein, either way, in both replicates (recomputed)", "summary_of_the_method": "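K562 pellets were dounce-homogenised in PBS pH 7.4 containing 1 mM MgCl2, and the crude extract, at 1 mg/mL protein, was exposed to 10 μM compound for 30 min. Aliquots were heated for 3 min across 48°C-58°C, pooled, brought to 0.5% NP-40 at 4°C and spun at 21,000xg for 90 min, with the supernatant taken as soluble protein. TMTpro 16plex LC-MS/MS with equalised channel sums quantified that protein. Values are log-two fold changes in thermal stability relative to solvent controls, taken from duplicates.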"}
{"target": "B3GLCT (UniProt Q6Y288)", "log2 fold change": "inactive: 0.007"}
{"target": "ATP13A1 (UniProt Q9HD20)", "log2 fold change": "inactive: 0.007"}
{"target": "ATP5F1C (UniProt P36542)", "log2 fold change": "inactive: -0.003"}
{"target": "ATP2B4 (UniProt P23634)", "log2 fold change": "inactive: -0.003"}
{"target": "ATP5F1D (UniProt P30049)", "log2 fold change": "inactive: 0.047"}
{"target": "ATP23 (UniProt Q9Y6H3)", "log2 fold change": "inactive: -0.02"}
{"target": "ATXN3 isoform 1 (UniProt P54252)", "log2 fold change": "inactive: 0.056"}
{"target": "AZGP1 (UniProt P25311)", "log2 fold change": "inactive: -0.318"}
{"target": "ASH2L (UniProt Q9UBL3)", "log2 fold change": "inactive: 0.006"}
{"target": "ATG9A (UniProt Q7Z3C6)", "log2 fold change": "inactive: 0.022"}
{"target": "ATP6V1E2 (UniProt Q96A05)", "log2 fold change": "inactive: -0.03"}
{"target": "ATP1A1 (UniProt P05023)", "log2 fold change": "inactive: -0.006"}
{"target": "ATG101 (UniProt Q9BSB4)", "log2 fold change": "inactive: 0.025"}
{"target": "B2M (UniProt P61769)", "log2 fold change": "inactive: 0.009"}
{"target": "ASB6 (UniProt Q9NWX5)", "log2 fold change": "inactive: 0.01"}
{"target": "ATP11A (UniProt P98196)", "log2 fold change": "inactive: 0.02"}
{"target": "ATP6V1E1 (UniProt P36543)", "log2 fold change": "inactive: -0.015"}
{"target": "ATP5PF isoform 2 (UniProt P18859)", "log2 fold change": "inactive: 0.083"}
{"target": "ATP13A2 (UniProt Q9NQ11)", "log2 fold change": "inactive: 0.023"}
{"target": "ATG7 (UniProt O95352)", "log2 fold change": "inactive: 0.027"}
{"target": "ATRIP (UniProt Q8WXE1)", "log2 fold change": "inactive: -0.019"}
{"target": "AVL9 (UniProt Q8NBF6)", "log2 fold change": "inactive: -0.007"}
{"target": "ATP6V1F isoform 2 (UniProt Q16864)", "log2 fold change": "inactive: 0.084"}
{"target": "ASL (UniProt P04424)", "log2 fold change": "inactive: 0.002"}
{"target": "ATE1 isoform 2 (UniProt O95260)", "log2 fold change": "inactive: 0.011"}
{"target": "ATP1A3 isoform 3 (UniProt P13637)", "log2 fold change": "inactive: -0.026"}
{"target": "ATXN10 (UniProt Q9UBB4)", "log2 fold change": "inactive: -0.013"}
{"target": "ATP6V1B2 (UniProt P21281)", "log2 fold change": "inactive: -0.036"}
{"target": "ATG2A isoform 3 (UniProt Q2TAZ0)", "log2 fold change": "inactive: -0.018"}
{"target": "ASF1B (UniProt Q9NVP2)", "log2 fold change": "inactive: -0.03"}
{"target": "ATG4C (UniProt Q96DT6)", "log2 fold change": "inactive: -0.022"}
{"target": "ATP1A4 (UniProt Q13733)", "log2 fold change": "inactive: 0.016"}
{"target": "ASNA1 (UniProt O43681)", "log2 fold change": "inactive: 0.015"}
{"target": "ATP5PO (UniProt P48047)", "log2 fold change": "inactive: 0.007"}
